The source of these data is PMC7755716.

This data set deals with T1, DtxR (UniProt Q8NP95).
T1 sequence (looked up, limits assumed): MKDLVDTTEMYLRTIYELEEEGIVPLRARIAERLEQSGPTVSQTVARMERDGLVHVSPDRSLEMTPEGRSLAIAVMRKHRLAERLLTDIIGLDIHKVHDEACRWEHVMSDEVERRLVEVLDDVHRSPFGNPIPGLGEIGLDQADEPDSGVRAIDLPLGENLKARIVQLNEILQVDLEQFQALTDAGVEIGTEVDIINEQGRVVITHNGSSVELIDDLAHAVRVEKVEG
Nature of the data set: EMSA. Conditions: 150 uM Mn2+, 5 mM Mg2+; 50 mM Tris-HCl pH 7.5, 5 mM MgCl2, 40 mM KCl, 5% glycerol, 1 mM DTT, 150 uM MnCl2; 30 min at room temperature; 200 ng DNA, 0-350 ng DtxR dimer in 10 ul; recombinant protein; label: none (SYBR Green I stain); probe letters rebuilt from the primers and the genome.

Construct, isoform or probe ends are uncertain for at least one entry. Whether high values mean tight binding is not given here for every scale. Protein sequences can lack the tags named with them.

Regarding “GTTGAGGGCGACGATGCGCTGTTCATCGGAGGAGGATGAAGAGGTGCTTGATTCCGCTGAGGATGAAGAAGATGAGGAAGCGGAGGAGTTTTGGTTTTGAGAGGATTGCGCGCAGGCAGTTACAGCAAGGGTGGTGGCGCCGAGCAGTGTGCCGAGGAATGCGCGCCGGCTAATCTCCATATGCATAGGCAAAAGGTACCCTTGCCTAAATAATTTTGCAAAATCGAAGCGTAGGGGGACGTCGAAAAGCAATGCCTTTTTGGAAGGCGCACGGCGCCGAGGTGCAGCTTTGGGTGAAGAAGTATTTTTCGGCACACGTGTGATTCAGGTCAGCCTTAATGTAATGCTGCTAGAGTGAACTTCCGTGACTGATTTTTCTAGTGCTTCAAATGCTGACGA (double strand) [NCgl1959 regulatory region, C-14G (399 bp)]”, the binding signal (% of wild-type affinity) came to 40.
